Literature values in patent US8431613B2, “Memory fixation accelerator” (Research Foundation ITSUU Laboratory, priority 2004, dated 2013).
At least one structure is not confirmed: it was looked up by name or label, or the drawing left a doubt.

Test system: aged mice
Conditions: 150 μg/kg, s.c.; cited from earlier work

## CC1=C(/C=C/C(C)=C/C=C/C(C)=C/C(=O)O)C(C)(C)CCC1 [retinoic acid]
  reduction of memory in aged mice: recovered
